The list shows a part of the results.
Columns and labels:
Assay in all cases: log2 fold change, soluble protein after heating vs DMSO (PISA); higher = thermal stabilisation; K562 lysate, 10 uM; active = over 0.2 and 3.5 SD of the protein, either way, in both replicates (recomputed)
[1] = compound: Cn1cc(CNCC2CCN(c3ncc(C(=O)NO)cn3)CC2)c2ccccc21 [quisinostat]
How it was run: (§1)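 Following dounce homogenisation of K562 pellets in PBS pH 7.4 with 1 mM MgCl2, crude extract at 1 mg/mL protein was incubated for 30 min with 10 μM compound. Aliquots were then heated for 3 min over 48°C-58°C and pooled, NP-40 was added to 0.5% at 4°C, and soluble protein was recovered as the supernatant at 21,000xg for 90 min. Channel-sum-equalised TMTpro 16plex LC-MS/MS quantified this protein. Each value, from duplicates, is a log-two fold change in thermal stability relative to solvent controls.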

By UniProt entry, the sequences of proteins in these tests, tags left out. Where a name states a change or a piece, a line headed by the entry shows the natural chain unless it says otherwise.
UniProt O15243: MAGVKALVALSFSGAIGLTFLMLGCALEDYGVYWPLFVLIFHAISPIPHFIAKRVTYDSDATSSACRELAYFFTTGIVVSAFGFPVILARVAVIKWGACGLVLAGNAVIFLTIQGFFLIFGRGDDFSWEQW
UniProt Q96JN0: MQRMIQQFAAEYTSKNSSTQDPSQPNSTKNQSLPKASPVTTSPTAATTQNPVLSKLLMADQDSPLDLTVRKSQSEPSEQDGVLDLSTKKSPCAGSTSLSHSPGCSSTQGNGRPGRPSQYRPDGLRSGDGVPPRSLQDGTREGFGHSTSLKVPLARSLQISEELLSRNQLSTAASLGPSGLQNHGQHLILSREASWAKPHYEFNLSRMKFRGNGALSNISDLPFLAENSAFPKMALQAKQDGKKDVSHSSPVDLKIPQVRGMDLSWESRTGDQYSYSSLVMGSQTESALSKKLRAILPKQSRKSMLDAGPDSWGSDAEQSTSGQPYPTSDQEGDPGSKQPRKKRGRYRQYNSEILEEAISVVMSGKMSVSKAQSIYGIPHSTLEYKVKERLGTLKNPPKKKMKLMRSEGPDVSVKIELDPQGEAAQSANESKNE
UniProt P02750: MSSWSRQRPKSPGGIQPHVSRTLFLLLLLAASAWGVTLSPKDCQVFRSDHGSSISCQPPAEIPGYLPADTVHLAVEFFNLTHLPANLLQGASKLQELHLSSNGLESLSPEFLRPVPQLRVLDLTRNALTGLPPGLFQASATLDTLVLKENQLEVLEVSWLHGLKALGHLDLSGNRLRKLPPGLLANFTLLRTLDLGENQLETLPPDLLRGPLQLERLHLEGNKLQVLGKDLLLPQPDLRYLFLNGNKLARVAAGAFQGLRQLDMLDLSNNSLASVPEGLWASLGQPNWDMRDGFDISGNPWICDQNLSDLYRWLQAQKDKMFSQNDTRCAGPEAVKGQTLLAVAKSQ
UniProt Q53QV2: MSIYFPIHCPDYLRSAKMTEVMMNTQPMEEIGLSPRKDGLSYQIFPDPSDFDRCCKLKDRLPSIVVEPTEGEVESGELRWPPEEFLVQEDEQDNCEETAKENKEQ
UniProt Q96NW7: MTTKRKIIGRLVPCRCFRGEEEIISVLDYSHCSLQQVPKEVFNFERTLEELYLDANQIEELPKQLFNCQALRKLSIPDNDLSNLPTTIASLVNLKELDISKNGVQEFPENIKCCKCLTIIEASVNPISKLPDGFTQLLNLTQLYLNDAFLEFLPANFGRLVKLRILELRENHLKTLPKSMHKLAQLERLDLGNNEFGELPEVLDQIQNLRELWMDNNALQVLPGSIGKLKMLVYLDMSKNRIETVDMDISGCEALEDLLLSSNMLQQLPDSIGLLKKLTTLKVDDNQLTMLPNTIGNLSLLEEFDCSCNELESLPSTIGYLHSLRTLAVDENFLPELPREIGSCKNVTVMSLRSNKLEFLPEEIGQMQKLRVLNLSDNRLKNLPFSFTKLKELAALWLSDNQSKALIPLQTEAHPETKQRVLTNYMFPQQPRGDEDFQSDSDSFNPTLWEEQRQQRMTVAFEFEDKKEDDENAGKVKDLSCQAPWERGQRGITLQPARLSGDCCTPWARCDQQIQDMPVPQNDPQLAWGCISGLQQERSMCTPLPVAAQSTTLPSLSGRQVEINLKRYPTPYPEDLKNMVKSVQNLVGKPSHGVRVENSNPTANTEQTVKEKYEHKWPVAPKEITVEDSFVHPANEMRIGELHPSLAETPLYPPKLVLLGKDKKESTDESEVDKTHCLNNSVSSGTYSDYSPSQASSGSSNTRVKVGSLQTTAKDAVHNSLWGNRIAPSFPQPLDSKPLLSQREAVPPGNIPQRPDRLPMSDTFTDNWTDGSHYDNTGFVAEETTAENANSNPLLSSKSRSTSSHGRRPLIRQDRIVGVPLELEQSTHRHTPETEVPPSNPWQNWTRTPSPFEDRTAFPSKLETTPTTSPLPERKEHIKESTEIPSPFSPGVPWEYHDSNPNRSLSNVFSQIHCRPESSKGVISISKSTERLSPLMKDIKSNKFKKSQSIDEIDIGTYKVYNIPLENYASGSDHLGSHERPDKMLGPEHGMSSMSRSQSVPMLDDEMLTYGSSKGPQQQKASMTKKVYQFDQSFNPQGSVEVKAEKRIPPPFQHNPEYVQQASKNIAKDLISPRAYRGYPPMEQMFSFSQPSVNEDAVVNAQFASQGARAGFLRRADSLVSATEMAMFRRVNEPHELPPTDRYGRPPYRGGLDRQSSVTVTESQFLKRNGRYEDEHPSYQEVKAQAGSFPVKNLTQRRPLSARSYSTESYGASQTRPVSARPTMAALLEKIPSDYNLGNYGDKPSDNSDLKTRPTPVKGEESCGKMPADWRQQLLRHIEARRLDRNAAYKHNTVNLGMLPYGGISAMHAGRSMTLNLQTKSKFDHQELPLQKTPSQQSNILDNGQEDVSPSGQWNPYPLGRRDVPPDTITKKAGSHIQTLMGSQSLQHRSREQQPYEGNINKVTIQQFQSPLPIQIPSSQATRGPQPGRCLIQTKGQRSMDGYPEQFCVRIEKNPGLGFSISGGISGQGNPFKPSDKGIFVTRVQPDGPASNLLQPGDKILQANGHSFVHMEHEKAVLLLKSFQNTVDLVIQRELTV
UniProt Q8TBB1: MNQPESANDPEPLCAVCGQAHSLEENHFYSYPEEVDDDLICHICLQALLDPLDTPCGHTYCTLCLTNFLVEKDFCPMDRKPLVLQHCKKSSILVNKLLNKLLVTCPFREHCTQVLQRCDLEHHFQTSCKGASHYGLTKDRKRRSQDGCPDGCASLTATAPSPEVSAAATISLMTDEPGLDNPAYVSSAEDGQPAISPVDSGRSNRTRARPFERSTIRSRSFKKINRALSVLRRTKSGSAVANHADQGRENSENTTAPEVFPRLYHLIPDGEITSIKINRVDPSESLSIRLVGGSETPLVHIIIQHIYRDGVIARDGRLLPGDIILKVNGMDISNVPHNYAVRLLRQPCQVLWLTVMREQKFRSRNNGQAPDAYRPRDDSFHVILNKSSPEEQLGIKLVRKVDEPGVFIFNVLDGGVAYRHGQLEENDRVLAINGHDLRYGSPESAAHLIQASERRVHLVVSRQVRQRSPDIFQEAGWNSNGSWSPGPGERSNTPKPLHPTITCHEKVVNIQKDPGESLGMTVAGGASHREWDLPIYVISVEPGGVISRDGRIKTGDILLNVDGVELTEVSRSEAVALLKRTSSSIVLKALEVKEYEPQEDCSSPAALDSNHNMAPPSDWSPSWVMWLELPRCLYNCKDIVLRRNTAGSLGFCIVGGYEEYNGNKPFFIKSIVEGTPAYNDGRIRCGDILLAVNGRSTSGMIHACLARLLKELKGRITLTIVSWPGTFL
UniProt Q96FQ7: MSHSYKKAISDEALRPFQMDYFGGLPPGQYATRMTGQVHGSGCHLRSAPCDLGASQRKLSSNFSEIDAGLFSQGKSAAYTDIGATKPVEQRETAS
UniProt Q14114: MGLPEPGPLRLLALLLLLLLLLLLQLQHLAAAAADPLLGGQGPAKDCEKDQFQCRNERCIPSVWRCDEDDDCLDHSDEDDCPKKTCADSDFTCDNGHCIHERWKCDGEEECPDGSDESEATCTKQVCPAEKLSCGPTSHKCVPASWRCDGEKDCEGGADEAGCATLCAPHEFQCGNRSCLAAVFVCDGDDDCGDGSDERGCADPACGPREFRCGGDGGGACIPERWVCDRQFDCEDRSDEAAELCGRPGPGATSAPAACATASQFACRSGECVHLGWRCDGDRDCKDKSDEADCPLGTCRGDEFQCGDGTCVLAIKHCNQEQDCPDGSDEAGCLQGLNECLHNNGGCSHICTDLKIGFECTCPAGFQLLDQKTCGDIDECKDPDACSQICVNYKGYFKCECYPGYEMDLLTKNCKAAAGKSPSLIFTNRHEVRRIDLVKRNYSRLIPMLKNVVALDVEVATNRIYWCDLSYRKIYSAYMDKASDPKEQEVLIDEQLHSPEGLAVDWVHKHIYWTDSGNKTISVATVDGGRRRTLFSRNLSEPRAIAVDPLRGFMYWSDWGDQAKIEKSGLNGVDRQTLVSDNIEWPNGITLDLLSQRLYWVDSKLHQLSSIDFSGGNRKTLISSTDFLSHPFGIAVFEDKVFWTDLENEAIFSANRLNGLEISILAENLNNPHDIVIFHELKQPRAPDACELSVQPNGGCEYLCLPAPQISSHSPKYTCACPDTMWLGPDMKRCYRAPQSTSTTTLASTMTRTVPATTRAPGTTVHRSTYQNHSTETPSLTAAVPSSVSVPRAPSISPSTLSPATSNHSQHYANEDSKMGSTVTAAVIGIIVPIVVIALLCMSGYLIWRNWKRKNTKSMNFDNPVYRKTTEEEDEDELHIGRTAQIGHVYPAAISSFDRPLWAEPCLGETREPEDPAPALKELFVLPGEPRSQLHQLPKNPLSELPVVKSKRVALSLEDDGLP
UniProt Q8NC56: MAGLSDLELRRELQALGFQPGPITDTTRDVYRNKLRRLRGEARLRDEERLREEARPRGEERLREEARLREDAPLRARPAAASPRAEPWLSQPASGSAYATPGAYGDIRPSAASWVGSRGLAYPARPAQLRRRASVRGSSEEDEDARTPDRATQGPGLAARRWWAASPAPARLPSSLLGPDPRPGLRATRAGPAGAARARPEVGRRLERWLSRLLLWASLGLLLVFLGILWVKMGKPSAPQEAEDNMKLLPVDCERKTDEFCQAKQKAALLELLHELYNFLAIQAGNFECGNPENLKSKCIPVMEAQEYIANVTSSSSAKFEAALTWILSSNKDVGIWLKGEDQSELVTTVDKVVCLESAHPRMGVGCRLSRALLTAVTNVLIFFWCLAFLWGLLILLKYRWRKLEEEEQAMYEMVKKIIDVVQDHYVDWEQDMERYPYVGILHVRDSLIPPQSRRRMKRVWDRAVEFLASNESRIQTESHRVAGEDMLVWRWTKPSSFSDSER
UniProt Q52LA3: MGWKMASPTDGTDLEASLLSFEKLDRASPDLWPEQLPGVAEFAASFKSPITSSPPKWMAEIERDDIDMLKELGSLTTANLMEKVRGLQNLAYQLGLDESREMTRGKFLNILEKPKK
UniProt O75581: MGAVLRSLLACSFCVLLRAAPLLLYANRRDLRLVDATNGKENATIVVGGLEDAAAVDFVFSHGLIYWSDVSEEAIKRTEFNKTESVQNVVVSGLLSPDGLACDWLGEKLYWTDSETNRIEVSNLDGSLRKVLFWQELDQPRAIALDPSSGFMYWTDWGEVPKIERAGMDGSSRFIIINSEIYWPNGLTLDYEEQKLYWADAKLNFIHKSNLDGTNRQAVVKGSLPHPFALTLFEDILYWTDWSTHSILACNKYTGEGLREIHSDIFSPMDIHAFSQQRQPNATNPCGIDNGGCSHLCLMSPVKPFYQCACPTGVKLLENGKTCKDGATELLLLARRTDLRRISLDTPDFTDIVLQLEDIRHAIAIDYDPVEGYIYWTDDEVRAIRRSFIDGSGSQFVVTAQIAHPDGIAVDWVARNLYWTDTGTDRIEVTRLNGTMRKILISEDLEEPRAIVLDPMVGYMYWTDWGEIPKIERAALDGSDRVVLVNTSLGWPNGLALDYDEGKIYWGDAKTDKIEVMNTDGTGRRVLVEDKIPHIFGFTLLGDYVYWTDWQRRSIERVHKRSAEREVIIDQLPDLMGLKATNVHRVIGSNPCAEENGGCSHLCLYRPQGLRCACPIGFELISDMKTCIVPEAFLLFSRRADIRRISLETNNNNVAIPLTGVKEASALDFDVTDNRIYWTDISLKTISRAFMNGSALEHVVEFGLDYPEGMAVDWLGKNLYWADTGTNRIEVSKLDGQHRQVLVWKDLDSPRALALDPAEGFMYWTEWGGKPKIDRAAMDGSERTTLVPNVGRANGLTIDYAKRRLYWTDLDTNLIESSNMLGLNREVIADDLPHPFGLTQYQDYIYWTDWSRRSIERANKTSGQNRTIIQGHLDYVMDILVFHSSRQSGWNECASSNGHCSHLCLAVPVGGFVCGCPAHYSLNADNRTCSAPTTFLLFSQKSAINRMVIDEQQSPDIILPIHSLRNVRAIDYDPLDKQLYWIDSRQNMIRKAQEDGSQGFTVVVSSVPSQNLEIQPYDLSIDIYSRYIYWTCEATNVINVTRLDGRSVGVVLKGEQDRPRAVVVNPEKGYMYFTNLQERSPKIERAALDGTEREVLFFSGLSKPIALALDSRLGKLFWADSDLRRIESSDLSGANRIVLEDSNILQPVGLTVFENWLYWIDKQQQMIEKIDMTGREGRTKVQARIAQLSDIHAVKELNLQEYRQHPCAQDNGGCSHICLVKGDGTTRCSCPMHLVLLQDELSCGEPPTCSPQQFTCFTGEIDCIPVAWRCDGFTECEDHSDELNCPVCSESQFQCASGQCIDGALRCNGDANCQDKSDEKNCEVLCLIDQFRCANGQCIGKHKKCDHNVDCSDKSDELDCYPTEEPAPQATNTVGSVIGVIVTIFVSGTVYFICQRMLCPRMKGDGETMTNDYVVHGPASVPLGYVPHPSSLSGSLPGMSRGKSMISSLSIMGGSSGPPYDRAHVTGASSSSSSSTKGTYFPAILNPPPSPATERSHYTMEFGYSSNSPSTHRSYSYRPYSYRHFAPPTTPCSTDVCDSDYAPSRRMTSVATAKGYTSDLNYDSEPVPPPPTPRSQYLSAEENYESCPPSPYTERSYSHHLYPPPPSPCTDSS

[2] = compound: NC(=O)Nc1cc(-c2cccc(F)c2)sc1C(=O)N[C@H]1CCCNC1
How it was run: as §1

[3] = compound: NC(=O)c1cnc(N[C@@H]2CCCC[C@@H]2N)nc1Nc1cccc(-n2nccn2)c1
How it was run: as §1

[4] = compound: NC1(c2ccc(-c3nc4ccn5c(=O)[nH]nc5c4cc3-c3ccccc3)cc2)CCC1
How it was run: as §1

[5] = compound: Cc1nc(Nc2ncc(C(=O)Nc3c(C)cccc3Cl)s2)cc(N2CCN(CCO)CC2)n1 [dasatinib]
How it was run: as §1

[6] = compound: Cn1cc(-c2ccc3c(c2)CCN3C(=O)Cc2cccc(C(F)(F)F)c2)c2c(N)ncnc21
How it was run: as §1

[7] = compound: Cc1cn(-c2cc(NC(=O)c3ccc(C)c(Nc4nccc(-c5cccnc5)n4)c3)cc(C(F)(F)F)c2)cn1 [nilotinib]
How it was run: as §1

[8] = compound: Cc1nc(Nc2n[nH]c3c2CN(C(=O)N[C@H](CN(C)C)c2ccccc2)C3(C)C)c2sccc2n1
How it was run: as §1

[9] = compound: Cc1ncc(-c2ccnc(Nc3ccc(S(C)(=O)=O)cc3)n2)n1C(C)C
How it was run: as §1

[10] = compound: Cn1cncc1[C@@](N)(c1ccc(Cl)cc1)c1ccc2c(c1)c(-c1cccc(Cl)c1)cc(=O)n2C [tipifarnib]
How it was run: as §1

Measured: log2 fold change

LEPROT (UniProt O15243)
inactive: [1] -0.089 | [2] 0.092 | [3] -0.147 | [4] 0.024

LMBR1 isoform 3 (UniProt Q8WVP7)
inactive: [1] 0.006 | [2] 0.159

LIPT2 (UniProt A6NK58)
inactive: [3] -0.038

LCOR isoform 3 (UniProt Q96JN0)
inactive: [3] -0.263

LHFPL2 (UniProt Q6ZUX7)
inactive: [1] 0.013 | [2] 0.124

LSM10 (UniProt Q969L4)
inactive: [5] -0.115 | [6] 0.001 | [3] -0.011 | [4] 0.04

LRG1 (UniProt P02750)
inactive: [1] -0.022 | [2] 0.039 | [4] 0.167

LBH (UniProt Q53QV2)
inactive: [5] 0.04 | [6] -0.087 | [4] 0.084

LCORL (UniProt Q8N3X6)
inactive: [4] -0.355

LSM11 (UniProt P83369)
inactive: [5] 0.266 | [6] -0.049 | [1] -0.114 | [2] 0.049 | [4] -0.037

LDHA isoform 4 (UniProt P00338)
inactive: [3] 0.059

LEF1 (UniProt Q9UJU2)
inactive: [1] -0.12 | [2] 0.054

LRRC8E (UniProt Q6NSJ5)
inactive: [1] 0.011 | [2] 0.014

LINGO1 (UniProt Q96FE5)
inactive: [5] 0.026 | [6] -0.018 | [3] 0.042 | [4] 0.01

LRRC8C (UniProt E9PHY6)
inactive: [7] -0.265 | [8] 0.032 | [9] -0.097 | [10] -0.06 | [4] 0.241

LRRC45 (UniProt Q96CN5)
inactive: [5] -0.197 | [6] -0.218

LRRC7 (UniProt Q96NW7)
inactive: [5] 0.059 | [6] -0.043 | [1] 0.128 | [2] -0.009 | [3] 0.069

LIN28A (UniProt Q9H9Z2)
inactive: [7] -0.009 | [8] -0.023 | [9] 0.065 | [10] 0.052 | [4] 0.142

LNX1 (UniProt Q8TBB1)
inactive: [5] -0.312 | [6] -0.111 | [1] -0.029 | [2] -0.009

LEPROTL1 isoform 2 (UniProt O95214)
inactive: [5] -0.056 | [6] 0.248 | [3] -0.055 | [4] 0.033

LRRIQ1 (UniProt Q96JM4)
inactive: [1] -0.518 | [2] 0.242 | [3] 0.019

LCN2 (UniProt P80188)
inactive: [7] 0.227 | [8] -0.074 | [9] 0.358 | [10] -0.405 | [3] 0.22 | [4] 0.288

LIMD2 (UniProt Q9BT23)
inactive: [1] -0.072 | [2] 0.017

LINC00526 (UniProt Q96FQ7)
inactive: [1] 0.092 | [2] -0.126

LBHD1 (UniProt Q9BQE6)
inactive: [1] 0.202 | [2] 0.086

LRFN4 (UniProt Q6PJG9)
inactive: [5] 0.049 | [6] 0.035 | [1] 0.05 | [2] -0.001 | [3] 0.016 | [4] 0.006

LRP8 (UniProt Q14114)
inactive: [1] -0.09 | [2] 0.058 | [3] 0.059

LRRC9 (UniProt Q6ZRR7)
inactive: [1] -0.171 | [2] -0.038

LSR isoform 3 (UniProt Q86X29)
inactive: [1] 0.093 | [2] -0.232

Three entries picked at random from the list so far:
LCOR isoform 3 (UniProt Q96JN0)
inactive: [3] -0.263

LRRIQ1 (UniProt Q96JM4)
inactive: [1] -0.518 | [2] 0.242 | [3] 0.019

LINC00526 (UniProt Q96FQ7)
inactive: [1] 0.092 | [2] -0.126

More records follow.

LRP10 (UniProt Q7Z4F1)
inactive: [5] 0.015 | [6] 0.072 | [4] -0.313

LEMD2 (UniProt Q8NC56)
inactive: [5] 0.061 | [6] -0.157 | [1] -0.035 | [2] 0.03 | [3] -0.012 | [4] 0.138

LSM5 (UniProt Q9Y4Y9)
inactive: [5] 0.057 | [6] -0.035 | [1] -0.01 | [2] 0.016 | [3] 0.112 | [4] 0.225

LIN52 (UniProt Q52LA3)
inactive: [5] -0.272 | [6] 0.023 | [1] 0.064 | [2] -0.073 | [3] -0.124 | [4] -0.002

LRP6 (UniProt O75581)
inactive: [5] -0.017 | [6] -0.099 | [1] 0.033 | [2] 0.037 | [4] -0.061

LMO4 (UniProt P61968)
inactive: [5] 0.029 | [6] 0.149 | [1] 0.075 | [2] -0.032 | [3] -0.03 | [4] 0.277

From the supplement of paper PMC10849652
